Test results from publication PMC7977449.
No constants are given. Whether binding was seen depends on the method and setting. Binding seen in cells or lysates may run through a third protein. Binding can be weak; no strength is given.

By UniProt entry, the sequences of proteins in these tests, tags left out. Where a name states a change or a piece, a line headed by the entry shows the natural chain unless it says otherwise.
UniProt P40763: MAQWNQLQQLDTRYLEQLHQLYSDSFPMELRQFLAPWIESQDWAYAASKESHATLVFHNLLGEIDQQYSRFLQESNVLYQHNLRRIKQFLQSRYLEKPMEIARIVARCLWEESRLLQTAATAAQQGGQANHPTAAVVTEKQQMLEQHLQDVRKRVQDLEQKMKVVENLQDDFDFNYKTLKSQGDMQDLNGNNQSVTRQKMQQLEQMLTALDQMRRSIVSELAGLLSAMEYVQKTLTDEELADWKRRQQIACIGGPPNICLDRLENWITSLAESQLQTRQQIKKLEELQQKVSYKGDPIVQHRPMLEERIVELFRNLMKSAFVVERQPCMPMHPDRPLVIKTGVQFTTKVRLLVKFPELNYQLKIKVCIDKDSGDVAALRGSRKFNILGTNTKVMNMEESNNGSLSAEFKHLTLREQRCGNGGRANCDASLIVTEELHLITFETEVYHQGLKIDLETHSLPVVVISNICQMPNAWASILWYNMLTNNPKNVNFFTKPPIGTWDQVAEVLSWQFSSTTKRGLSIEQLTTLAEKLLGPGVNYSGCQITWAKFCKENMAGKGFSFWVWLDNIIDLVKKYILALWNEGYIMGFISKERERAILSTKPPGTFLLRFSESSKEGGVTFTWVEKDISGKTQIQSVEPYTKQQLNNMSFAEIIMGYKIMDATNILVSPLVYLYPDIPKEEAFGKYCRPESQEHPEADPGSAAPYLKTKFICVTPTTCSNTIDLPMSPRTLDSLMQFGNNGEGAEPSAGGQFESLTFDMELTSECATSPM
UniProt Q86WI3: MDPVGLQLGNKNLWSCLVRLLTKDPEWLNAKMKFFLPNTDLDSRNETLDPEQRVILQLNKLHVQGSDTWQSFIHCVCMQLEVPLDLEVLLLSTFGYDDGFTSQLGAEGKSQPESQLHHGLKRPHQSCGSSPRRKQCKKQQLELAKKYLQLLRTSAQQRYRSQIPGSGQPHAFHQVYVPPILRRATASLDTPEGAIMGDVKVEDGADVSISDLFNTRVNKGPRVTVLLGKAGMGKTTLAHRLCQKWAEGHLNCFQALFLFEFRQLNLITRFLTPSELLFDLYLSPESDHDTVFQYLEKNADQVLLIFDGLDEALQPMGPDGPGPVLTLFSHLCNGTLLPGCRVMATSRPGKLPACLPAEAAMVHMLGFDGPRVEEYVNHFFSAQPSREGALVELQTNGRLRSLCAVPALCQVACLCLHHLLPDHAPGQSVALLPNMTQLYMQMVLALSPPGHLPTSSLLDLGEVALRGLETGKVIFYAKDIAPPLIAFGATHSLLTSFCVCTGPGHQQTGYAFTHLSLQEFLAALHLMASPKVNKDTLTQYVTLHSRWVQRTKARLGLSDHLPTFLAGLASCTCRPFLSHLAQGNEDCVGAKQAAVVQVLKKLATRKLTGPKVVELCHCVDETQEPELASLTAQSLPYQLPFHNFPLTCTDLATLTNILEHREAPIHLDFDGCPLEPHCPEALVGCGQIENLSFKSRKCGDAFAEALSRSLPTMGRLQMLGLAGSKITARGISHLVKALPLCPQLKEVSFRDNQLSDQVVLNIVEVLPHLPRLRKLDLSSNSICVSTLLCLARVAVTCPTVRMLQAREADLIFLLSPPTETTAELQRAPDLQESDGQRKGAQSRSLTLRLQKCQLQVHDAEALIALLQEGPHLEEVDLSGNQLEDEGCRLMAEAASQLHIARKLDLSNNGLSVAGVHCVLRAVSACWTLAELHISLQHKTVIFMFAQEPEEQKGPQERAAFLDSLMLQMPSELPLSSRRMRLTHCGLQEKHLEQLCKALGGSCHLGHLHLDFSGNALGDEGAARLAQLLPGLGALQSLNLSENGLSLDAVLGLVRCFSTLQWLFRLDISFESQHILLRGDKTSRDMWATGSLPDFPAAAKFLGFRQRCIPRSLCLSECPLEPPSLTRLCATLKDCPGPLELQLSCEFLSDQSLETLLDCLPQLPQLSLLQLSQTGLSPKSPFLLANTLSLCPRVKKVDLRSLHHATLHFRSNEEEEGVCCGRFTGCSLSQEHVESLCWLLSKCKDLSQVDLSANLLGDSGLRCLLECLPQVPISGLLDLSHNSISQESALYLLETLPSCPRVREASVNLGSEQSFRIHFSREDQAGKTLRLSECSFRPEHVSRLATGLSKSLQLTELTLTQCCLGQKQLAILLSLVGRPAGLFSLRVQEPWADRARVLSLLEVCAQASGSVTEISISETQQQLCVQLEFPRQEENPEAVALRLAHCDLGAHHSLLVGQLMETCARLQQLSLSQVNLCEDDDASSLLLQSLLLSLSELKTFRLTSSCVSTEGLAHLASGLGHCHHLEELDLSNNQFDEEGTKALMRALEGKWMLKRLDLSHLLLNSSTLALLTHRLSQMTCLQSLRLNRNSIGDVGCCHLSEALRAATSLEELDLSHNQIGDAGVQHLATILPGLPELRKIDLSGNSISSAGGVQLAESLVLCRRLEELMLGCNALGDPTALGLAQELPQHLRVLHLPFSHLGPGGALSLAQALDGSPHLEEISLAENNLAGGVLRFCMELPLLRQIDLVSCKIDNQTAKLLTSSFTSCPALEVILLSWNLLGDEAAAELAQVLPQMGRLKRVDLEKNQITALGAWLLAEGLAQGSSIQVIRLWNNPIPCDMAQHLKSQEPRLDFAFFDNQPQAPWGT

Biological target: STAT3-Flag (UniProt P40763)
Assay: co-IP; HEK293T cells transfected with myc- and Flag-tagged plasmids; lysate immunoprecipitated with anti-myc or anti-Flag antibody, protein A/G agarose, western blot

binding: binds
Substance: myc-NLRC5 ΔDD (135-1855 aa) (from UniProt Q86WI3) (domain or fragment)
